Values from PubChem BioAssay AID743121 (NCATS, 2013).
Screen: 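Genes whose silencing strengthens cell killing by camptothecin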 (primary screen). Cells: MDA-MB-231 cells, a human breast cancer line. Reagent: single siRNA against human genes, 20 nM siRNA (0.8 pmol per well). Time to read-out: 120 h (drug added 48 h after transfection, read 72 h later). Challenge: camptothecin 20 nM (about EC30) for 72 h; vehicle 0.1% DMSO in parallel plates. Detection: 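CellTiter-Glo ATP signal, scaled to control siRNA as percent viability; sensitisation given as log2 of untreated divided by camptothecin-treated viability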. Direction: log2 vehicle/camptothecin viability: higher = stronger sensitisation to camptothecin; viability with camptothecin: higher = more viable cells. Units: viability with camptothecin in % of control. Call rule: 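Each gene scored by redundant siRNA activity (RSA) over its individual siRNA ratios; a gene is called active at p < 0.001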.
In all, the deposit lists about 26,000 reagents; below is an unselected part. 167 of all reagents (0.63%) count as active. 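Calls are per gene from RSA p-values that are not deposited; an individual active-marked siRNA can sensitise only weakly.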 Reagents against one gene are numbered here. Not all columns of the deposit are shown. Reagent sequences are not shown.

After knock-down of OLFM4 (olfactomedin 4) #1, the screen gave log2 vehicle/camptothecin viability -0.57; viability with camptothecin 66.4; inactive. For OLFM4 (olfactomedin 4) #2 the deposit lists log2 vehicle/camptothecin viability -0.147; viability with camptothecin 92.8; inactive. Depletion of OLFM4 (olfactomedin 4) #3 came out at: log2 vehicle/camptothecin viability -0.16; viability with camptothecin 8.46; inactive. After knock-down of OLFM4 (olfactomedin 4) #4, the screen gave log2 vehicle/camptothecin viability -0.311; viability with camptothecin 44.1; inactive. Against SORCS3 (sortilin related VPS10 domain containing receptor 3) #1, the values are log2 vehicle/camptothecin viability -0.389; viability with camptothecin 92.2; inactive. Against SORCS3 (sortilin related VPS10 domain containing receptor 3) #2, the values are log2 vehicle/camptothecin viability -0.49; viability with camptothecin 54.7; inactive.

Knock-down of SORCS3 (sortilin related VPS10 domain containing receptor 3) #3 resulted in: log2 vehicle/camptothecin viability -0.11; viability with camptothecin 60.6; inactive. Knock-down of SORCS3 (sortilin related VPS10 domain containing receptor 3) #4 came out at: log2 vehicle/camptothecin viability -0.499; viability with camptothecin 46.1; inactive. Knock-down of OGG1 (8-oxoguanine DNA glycosylase) #1 gave: log2 vehicle/camptothecin viability -0.287; viability with camptothecin 56.4; inactive. For OGG1 (8-oxoguanine DNA glycosylase) #2, the values are log2 vehicle/camptothecin viability 1.08; viability with camptothecin 27.6; inactive. OGG1 (8-oxoguanine DNA glycosylase) #3 gave log2 vehicle/camptothecin viability -0.0194; viability with camptothecin 74.8; inactive. OGG1 (8-oxoguanine DNA glycosylase) #4 scored log2 vehicle/camptothecin viability -0.046; viability with camptothecin 104; inactive.

Against ERCC2 (ERCC excision repair 2, TFIIH core complex helicase subunit) #1 the deposit lists log2 vehicle/camptothecin viability -0.308; viability with camptothecin 115; inactive. Against ERCC2 (ERCC excision repair 2, TFIIH core complex helicase subunit) #2 the deposit lists log2 vehicle/camptothecin viability -0.3; viability with camptothecin 44.1; inactive. ERCC2 (ERCC excision repair 2, TFIIH core complex helicase subunit) #3 showed log2 vehicle/camptothecin viability -0.203; viability with camptothecin 23.7; inactive. Depletion of ERCC2 (ERCC excision repair 2, TFIIH core complex helicase subunit) #4 came out at: log2 vehicle/camptothecin viability 0.1; viability with camptothecin 56; inactive.

Already shown: an excerpt of the list.
OLFM4 (olfactomedin 4) #1 — log2 vehicle/camptothecin viability: -0.57; viability with camptothecin: 66.4; outcome: inactive
OLFM4 (olfactomedin 4) #2 — log2 vehicle/camptothecin viability: -0.147; viability with camptothecin: 92.8; outcome: inactive
OLFM4 (olfactomedin 4) #3 — log2 vehicle/camptothecin viability: -0.16; viability with camptothecin: 8.46; outcome: inactive
OLFM4 (olfactomedin 4) #4 — log2 vehicle/camptothecin viability: -0.311; viability with camptothecin: 44.1; outcome: inactive

More reagents follow.
After knock-down of RARS1 (arginyl-tRNA synthetase 1) #1 the results were log2 vehicle/camptothecin viability -0.155; viability with camptothecin 68.1; inactive. Depletion of RARS1 (arginyl-tRNA synthetase 1) #2 gave: log2 vehicle/camptothecin viability -0.282; viability with camptothecin 85.9; inactive. After knock-down of RARS1 (arginyl-tRNA synthetase 1) #3, the screen gave log2 vehicle/camptothecin viability -0.404; viability with camptothecin 104; inactive. After knock-down of ADAM2 (ADAM metallopeptidase domain 2) #1, the record shows log2 vehicle/camptothecin viability -0.188; viability with camptothecin 79; inactive. ADAM2 (ADAM metallopeptidase domain 2) #2 showed log2 vehicle/camptothecin viability 0.692; viability with camptothecin 64.7; inactive. ADAM2 (ADAM metallopeptidase domain 2) #3 gave log2 vehicle/camptothecin viability 0.752; viability with camptothecin 10.9; inactive.

With knock-down of ADAM2 (ADAM metallopeptidase domain 2) #4, the screen gave log2 vehicle/camptothecin viability -0.0798; viability with camptothecin 123; inactive. Depletion of TSNARE1 (t-SNARE domain containing 1) #1 gave: log2 vehicle/camptothecin viability -0.278; viability with camptothecin 84.2; inactive. Against TSNARE1 (t-SNARE domain containing 1) #2 the deposit lists log2 vehicle/camptothecin viability -1.72; viability with camptothecin 42; inactive. TSNARE1 (t-SNARE domain containing 1) #3 gave log2 vehicle/camptothecin viability 0.0706; viability with camptothecin 102; inactive. TSNARE1 (t-SNARE domain containing 1) #4 gave log2 vehicle/camptothecin viability -0.0296; viability with camptothecin 73.9; inactive. With knock-down of CLDN16 (claudin 16) #1, the record shows log2 vehicle/camptothecin viability -0.793; viability with camptothecin 43.5; inactive.

For CLDN16 (claudin 16) #2 the deposit lists log2 vehicle/camptothecin viability 0.836; viability with camptothecin 41.4; inactive. Against CLDN16 (claudin 16) #3 the deposit lists log2 vehicle/camptothecin viability -0.238; viability with camptothecin 70.9; inactive. CLDN16 (claudin 16) #4 gave log2 vehicle/camptothecin viability -0.264; viability with camptothecin 61.3; inactive. Silencing of RC3H2 (ring finger and CCCH-type domains 2) #1 resulted in: log2 vehicle/camptothecin viability -0.323; viability with camptothecin 32.5; inactive. RC3H2 (ring finger and CCCH-type domains 2) #2 gave log2 vehicle/camptothecin viability 0.118; viability with camptothecin 66.7; inactive. Depletion of RC3H2 (ring finger and CCCH-type domains 2) #3 came out at: log2 vehicle/camptothecin viability 0.705; viability with camptothecin 22.9; inactive.

With knock-down of PIK3C2B #1, the screen gave log2 vehicle/camptothecin viability -0.147; viability with camptothecin 46.5; inactive. PIK3C2B #2 showed log2 vehicle/camptothecin viability -0.086; viability with camptothecin 98.6; inactive. Silencing of PIK3C2B #3 came out at: log2 vehicle/camptothecin viability -0.279; viability with camptothecin 106; inactive. With knock-down of PIK3C2B #4, the screen gave log2 vehicle/camptothecin viability -0.209; viability with camptothecin 119; inactive.
